# The supplement of paper PMC8256030
# Where “and” joins values, the source holds several entries; their conditions need not be identical. Equal values may be shown once. Where a name gives a salt, the structure may show the parent alone. Some of the results follow. Repeats in this data set agree poorly, so a single value says little.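 HEK293T cells were given each compound shortly before transfection with a reporter in which red mCherry is followed by the SARS-CoV-2 frameshift element and then GFP in the −1 frame, so GFP appears only after frameshifting.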
# Experiments:
# [1] = test system: SARS-CoV-2 -1 PRF reporter mCherry-FSE-GFP(-1); assay: mCherry (red) intensity as percent of control; higher = higher upstream reporter expression; conditions: 10 µM; 24 h; HEK293T
# [2] = test system: SARS-CoV-2 -1 PRF reporter mCherry-FSE-GFP(-1); assay: percent effect, decrease of GFP/mCherry ratio (-1 PRF reporter) relative to controls; higher = stronger frameshift inhibition; conditions: 10 µM; 24 h; HEK293T
Structure (SMILES),mCherry [1],percent effect [2]
CC(C)(Oc1ccccc1)C(=O)OCCN1CCOCC1 [promolate],105%,-6.21%
CC1(C)OC(=O)Nc2ccc(Br)cc21 [brofoxine],115%,-4.42%
Oc1ccc(C2CNCCc3c2cc(O)c(O)c3Cl)cc1 (stereo not drawn) [Fenoldopam·HCl],71.4%,-2.61%
CCN[C@@H]1C[C@H](N)[C@@H](O[C@H]2OC(CN)=CC[C@H]2N)[C@H](O)[C@H]1O[C@H]1OC[C@](C)(O)[C@H](NC)[C@H]1O [netilmicin],73.1%,-0.738%
CC(C)NCC(O)COc1cccc2[nH]ccc12 (stereo not drawn) [pindolol],105% and 110%,-2.15% and -9.18%
O=C(NCC1[C@H]2CN(C(=O)OCc3cc(C(F)(F)F)cc(C(F)(F)F)c3)C[C@@H]12)c1ccc2n[nH]nc2c1 (stereo partly drawn),78.6%,-1.2%
C[C@@H]1O[C@@H](OC[C@H]2O[C@@H](Oc3c(-c4ccc(OCCO)c(OCCO)c4)oc4cc(OCCO)cc(O)c4c3=O)[C@H](O)[C@@H](O)[C@@H]2O)[C@H](O)[C@H](O)[C@H]1O [troxerutin],102%,-1.45%
Cc1[nH]cnc1CN1CCc2c(c3ccccc3n2C)C1=O [alosetron],155%,-14.2%
O=C(O)CCC/C=C\C[C@@H]1[C@@H](/C=C/[C@@H](O)COc2cccc(C(F)(F)F)c2)[C@H](O)C[C@@H]1O (racemic) [fluprostenol],91.4%,-3.37%
COCCOc1cnc(NS(=O)(=O)c2ccccc2)nc1 [glymidine],74.2%,-1.19%
NC(=O)c1ncn([C@@H]2O[C@H](CO)[C@@H](O)[C@H]2O)c1O [mizoribine],106%,-0.76%
C=C(c1ccc(C(=O)O)cc1)c1cc2c(cc1C)C(C)(C)CCC2(C)C [bexarotene],93.3%,-3.41%
[O-][n+]1cccc(CO)c1,92.8%,0.191%
CC(C)CCCC(C)NC(C)C (stereo not drawn) [iproheptine],101%,-3.2%
NCCS,105%,-5.14%
COc1nc2ccc(Br)cc2cc1[C@@H](c1ccccc1)[C@@](O)(CCN(C)C)c1cccc2ccccc12 [Bedaquiline],114%,0.439%
CC(=O)OC/C=C(C)/C=C/C=C(C)/C=C/C1=C(C)CCCC1(C)C [Vitamin A acetate],83.1%,-1.21%
Cc1ccc(Cl)c(OCC(O)CNC(C)(C)C)c1 (stereo not drawn) [bupranolol],117%,-4.34%
C[N+](C)(C)CC(O)CC(=O)[O-] (stereo not drawn),115%,7.28%

# Complete entries as entered above.
# CC(C)(Oc1ccccc1)C(=O)OCCN1CCOCC1 [promolate] reads mCherry [1]: 105%; percent effect [2]: -6.21%
# O=C(O)CCC/C=C\C[C@@H]1[C@@H](/C=C/[C@@H](O)COc2cccc(C(F)(F)F)c2)[C@H](O)C[C@@H]1O (racemic) [fluprostenol] reads mCherry [1]: 91.4%; percent effect [2]: -3.37%
